Data from publication PMC10550967, “Structure of the ceramide-bound SPOTS complex” (Nature Communications, 2023).
These are yes or no findings as the source states them, for the method shown. For part of these data: In cells and extracts the contact can be indirect. Some binding calls cover weakened binding; strength is not graded here. For part of these data: Sequences can lack the tags named with a protein. One block for each molecule: values may come before it.

Chains of the proteins cited; added tags and fusions are not shown. Lines headed by an entry give the natural chain unless they say otherwise; changes in a name come on top. A line that says so, or that is headed by a name, gives the form on record, which may keep a tag or linker.
UniProt P53224: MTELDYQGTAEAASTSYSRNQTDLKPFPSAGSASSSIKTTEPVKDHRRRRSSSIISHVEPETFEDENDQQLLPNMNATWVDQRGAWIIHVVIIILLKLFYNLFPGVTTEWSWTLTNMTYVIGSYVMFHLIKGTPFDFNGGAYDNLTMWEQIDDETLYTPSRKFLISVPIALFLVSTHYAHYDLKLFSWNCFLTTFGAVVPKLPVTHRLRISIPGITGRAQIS
Orm1 with S51, S52 and S53 mutated to alanine (ORM1^AAA) (P53224, form named): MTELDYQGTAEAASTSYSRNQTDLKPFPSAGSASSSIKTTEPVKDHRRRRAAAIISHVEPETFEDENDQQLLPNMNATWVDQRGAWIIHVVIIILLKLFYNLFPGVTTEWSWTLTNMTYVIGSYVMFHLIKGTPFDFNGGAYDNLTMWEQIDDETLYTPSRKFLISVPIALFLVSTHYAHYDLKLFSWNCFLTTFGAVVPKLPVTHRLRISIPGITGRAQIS

Key:
[1] = biological target: T1, Lcb1, internally 3xFLAG-tagged after P9 (S. cerevisiae) (UniProt P25045); test: cryo-EM structure; single-particle cryo-EM of the FLAG-purified complex in GDN, 10 mg/ml; one dataset gave a C2 symmetric SPOT dimer, a SPOT monomer and a SPOTS monomer with Sac1; both purified
T1 sequence: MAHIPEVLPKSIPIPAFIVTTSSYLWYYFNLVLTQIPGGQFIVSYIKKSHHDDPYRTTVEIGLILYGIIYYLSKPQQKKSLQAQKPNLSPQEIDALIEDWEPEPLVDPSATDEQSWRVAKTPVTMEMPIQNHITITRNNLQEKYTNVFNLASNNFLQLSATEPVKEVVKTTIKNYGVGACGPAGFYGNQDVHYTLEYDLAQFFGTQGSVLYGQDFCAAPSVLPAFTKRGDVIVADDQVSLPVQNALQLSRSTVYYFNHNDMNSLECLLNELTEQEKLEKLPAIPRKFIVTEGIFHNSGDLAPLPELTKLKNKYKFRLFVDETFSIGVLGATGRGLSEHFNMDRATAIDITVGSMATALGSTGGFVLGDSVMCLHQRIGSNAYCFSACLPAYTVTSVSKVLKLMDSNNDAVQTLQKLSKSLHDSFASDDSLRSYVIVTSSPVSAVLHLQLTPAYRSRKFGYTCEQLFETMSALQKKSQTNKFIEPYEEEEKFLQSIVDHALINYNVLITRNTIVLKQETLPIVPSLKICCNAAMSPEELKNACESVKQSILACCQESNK

Lcb2 (S. cerevisiae) = biological target: T2, Lcb2 (S. cerevisiae) (UniProt P40970); test: as above
T2 sequence (chain, PLP forms an internal aldimine with K366): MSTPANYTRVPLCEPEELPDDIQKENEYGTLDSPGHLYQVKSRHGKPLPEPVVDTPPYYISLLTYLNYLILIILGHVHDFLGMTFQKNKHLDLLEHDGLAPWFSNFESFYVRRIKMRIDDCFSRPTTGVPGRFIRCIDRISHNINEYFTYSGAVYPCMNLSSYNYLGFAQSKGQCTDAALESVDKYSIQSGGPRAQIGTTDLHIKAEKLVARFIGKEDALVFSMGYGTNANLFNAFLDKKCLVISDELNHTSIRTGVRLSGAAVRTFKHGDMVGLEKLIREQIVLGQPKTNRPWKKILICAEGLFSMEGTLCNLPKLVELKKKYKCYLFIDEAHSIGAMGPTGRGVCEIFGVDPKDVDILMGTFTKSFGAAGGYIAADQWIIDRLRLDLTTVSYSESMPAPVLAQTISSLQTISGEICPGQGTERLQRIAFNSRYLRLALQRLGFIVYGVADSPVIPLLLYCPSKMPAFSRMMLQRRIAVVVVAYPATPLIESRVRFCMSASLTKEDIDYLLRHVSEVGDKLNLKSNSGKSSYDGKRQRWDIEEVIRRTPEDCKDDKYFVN

[2] = biological target: Lcb1, one FLAG-tagged and one ALFA-tagged copy in diploid cells (S. cerevisiae) (UniProt P25045); test: co-IP; pulldown from diploid yeast with one FLAG-tagged and one ALFA-tagged Lcb1, ALFA beads or Fab-Trap beads, western blot with anti-FLAG and anti-ALFA

Molecule: Orm1 with S51, S52 and S53 mutated to alanine (ORM1^AAA) (from UniProt P53224 1-222)
binding [1]: binds
binding (Lcb2 (S. cerevisiae)): binds

B3: Lcb1, one FLAG-tagged and one ALFA-tagged copy in diploid cells (enzyme, UniProt P25045 1-558)
chain: T1 sequence
binding [2]: binds weakly

B4: Sac1, PI4P phosphatase (enzyme, UniProt P32368 1-623)
chain: MTGPIVYVQNADGIFFKLAEGKGTNDAVIHLANQDQGVRVLGAEEFPVQGEVVKIASLMGFIKLKLNRYAIIANTVEETGRFNGHVFYRVLQHSIVSTKFNSRIDSEEAEYIKLLELHLKNSTFYFSYTYDLTNSLQRNEKVGPAASWKTADERFFWNHYLTEDLRNFAHQDPRIDSFIQPVIYGYAKTVDAVLNATPIVLGLITRRSIFRAGTRYFRRGVDKDGNVGNFNETEQILLAENPESEKIHVFSFLQTRGSVPIYWAEINNLKYKPNLVLGENSLDATKKHFDQQKELYGDNYLVNLVNQKGHELPVKEGYESVVHALNDPKIHYVYFDFHHECRKMQWHRVKLLIDHLEKLGLSNEDFFHKVIDSNGNTVEIVNEQHSVVRTNCMDCLDRTNVVQSVLAQWVLQKEFESADVVATGSTWEDNAPLLTSYQNLWADNADAVSVAYSGTGALKTDFTRTGKRTRLGAFNDFLNSASRYYQNNWTDGPRQDSYDLFLGGFRPHTASIKSPFPDRRPVYIQLIPMIICAALTVLGATIFFPKDRFTSSKNLLYFAGASIVLALSTKFMFKNGIQFVNWPKLVDVGFLVVHQTHDKEQQFKGLKYAQSPKFSKPDPLKRD
binding (Lcb2 (S. cerevisiae)): binds

Now from value to molecule:

binding (Lcb2 (S. cerevisiae)): binds
B1: Tsc3 (protein, UniProt Q3E790 1-80)
chain: MTQHKSSMVYIPTTKEAKRRNGKSEGILNTIEEVVEKLYWTYYIHLPFYLMASFDSFFLHVFFLTIFSLSFFGILKYCFL

binding [1]: binds
B2: Lcb2 (enzyme, S. cerevisiae)
chain: T2 sequence (chain, PLP forms an internal aldimine with K366)
modifications: PLP forms an internal aldimine with K366
notes: Lcb2, catalytic subunit of serine palmitoyltransferase, S. cerevisiae; also called SPT subunit; source: S. cerevisiae, co-expressed with the other SPOTS subunits under the GAL1 promoter
